Reference: PubChem BioAssay AID1259254 (NCATS, 2017)

Test: 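Gene knock-downs that lead to re-replication, shown by excess G2 DNA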 (primary screen)
System: human HCT116 colorectal cancer cells
Reagents: single siRNA against human genes
Duration: 3 days
Measured: 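Imaged Hoechst DNA stain sorts each cell into a cycle phase by DNA amount; per plate, G2 fraction set to 0% for non-targeting and 100% for GMNN siRNA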
Scale: G2 robust z-score and G2 cells, % of GMNN control: higher = more G2 cells, more excess DNA replication
Call rule: 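An siRNA counts as active if its G2 robust z-score lies at least 5 MADs above the screen median; here such calls match roughly 38% of GMNN control or more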
In all, the deposit lists about 59,000 reagents; this is a part drawn at random. In the full data, about 1,550 (2.6%) are marked active. 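G2 share is only a proxy for re-replication; each gene was hit by three separate siRNAs, and active genes were retested.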 Unmarked entries are inactive. Reagents against one gene are numbered here. Not all columns of the deposit are shown. Not given: the amount of reagent.

Gene | reagent no. | G2 robust z-score | G2 cells, % of GMNN control
RBM18 | 1 | -0.142 | 1.97
RBM18 | 2 | 4.24 | 32.8
RBM18 | 3 | -0.0894 | 2.34
TLR2 | 1 | 2.52 | 20.7
TLR2 | 2 | 3.26 | 25.9
TLR2 | 3 | 5.25 (active) | 39.9
REEP6 | 1 | -0.939 | -3.64
REEP6 | 2 | 0.619 | 7.32
REEP6 | 3 | 0.168 | 4.15
H2AC21 | 1 | 4.38 | 33.8
H2AC21 | 2 | 1.31 | 12.2
H2AC21 | 3 | 0.245 | 4.69
GPR78 | 1 | 0.0874 | 3.58
GPR78 | 2 | -0.357 | 0.458
GPR78 | 3 | -0.432 | -0.0702
RNF166 | 1 | 1.15 | 11.1
RNF166 | 2 | 3.51 | 27.6
RNF166 | 3 | -0.495 | -0.517
TNFRSF14 | 1 | -0.941 | -3.65
TNFRSF14 | 2 | 0.261 | 4.8
TNFRSF14 | 3 | -0.285 | 0.962
HTR1B | 1 | -0.461 | -0.274
HTR1B | 2 | -0.272 | 1.05
HTR1B | 3 | 4.75 | 36.4
ODR4 | 1 | 2 | 17.1
ODR4 | 2 | 1.59 | 14.2
ODR4 | 3 | 0.942 | 9.6
ALDH1A2 | 1 | 1.5 | 13.5
ALDH1A2 | 2 | -0.624 | -1.42
ALDH1A2 | 3 | -0.458 | -0.254
CASTOR3P | 1 | -0.859 | -3.07
CASTOR3P | 2 | -0.118 | 2.14
CASTOR3P | 3 | 0.425 | 5.95
KCNQ5 | 1 | -0.503 | -0.568
KCNQ5 | 2 | 1.22 | 11.5
KCNQ5 | 3 | -0.29 | 0.93
NEFL | 1 | 1.42 | 12.9
NEFL | 2 | -0.903 | -3.38
NEFL | 3 | 0.959 | 9.72
IPMK | 1 | 0.568 | 6.96
IPMK | 2 | -0.992 | -4.01
IPMK | 3 | 0.0985 | 3.66
NFE2 | 1 | -0.703 | -1.98
NFE2 | 2 | -0.62 | -1.4
NFE2 | 3 | 0.15 | 4.02
S100A7P3 | 1 | -0.975 | -3.89
S100A7P3 | 2 | -0.419 | 0.0203
S100A7P3 | 3 | 0.387 | 5.69
FGF16 | 1 | 1.93 | 16.6
FGF16 | 2 | 1.02 | 10.1
FGF16 | 3 | -0.662 | -1.69
NKAIN1 | 1 | -0.301 | 0.85
NKAIN1 | 2 | -0.711 | -2.04
NKAIN1 | 3 | 0.189 | 4.3
NDUFS2 | 1 | 2.31 | 19.2
NDUFS2 | 2 | -0.595 | -1.22
NDUFS2 | 3 | -0.0202 | 2.83
GIMAP2 | 1 | 2.22 | 18.6
GIMAP2 | 2 | 1.27 | 11.9
GIMAP2 | 3 | 1.1 | 10.7
SMAD7 | 1 | -0.183 | 1.68
SMAD7 | 2 | 0.471 | 6.28
SMAD7 | 3 | 2.11 | 17.8
RNF19A | 1 | -0.0437 | 2.66
RNF19A | 2 | 1.89 | 16.3
RNF19A | 3 | -0.894 | -3.32
SUPT16H | 1 | 6.07 (active) | 45.7
SUPT16H | 2 | -0.806 | -2.71
SUPT16H | 3 | 0.0163 | 3.08

Look-ups from the entries so far.
TLR2 #3, G2 robust z-score → 5.25 (active)
IPMK #3, G2 robust z-score = 0.0985
Value for ALDH1A2 #3 in “G2 robust z-score”: -0.458
Under “G2 robust z-score”, FGF16 #2 is entered as 1.02
KCNQ5 #2, G2 cells, % of GMNN control → 11.5
Value for ODR4 #1 in “G2 robust z-score”: 2
